PubChem BioAssay AID1508600 (Functional Genomics Laboratory (NCATS/FGL), 2020)
The whole screen tested about 53,000 sequences, of which about 3,700 (7%) were called active.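 Rule for the calls: active = gene knockdowns whose robust z-score for IL-1 alpha signal is at least 2 or at most -2, so actives lie on both sides; inactive = the rest.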 The list shows a part of the results.

Assay: Components of the Cytosolic LPS Sensing Pathway: Gene Identification via Genome-wide siRNA Screen;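 note: robust z of the log signal after scaling to non-targeting control siRNA wells of the plate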
Details: RAW264.7 macrophages, IL-1a HTRF, actives lie on both sides, screened at 100 nM (by protocol), cells primed 5 h with Pam3CSK4 first
Outline: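 Supernatant IL-1a by HTRF from RAW264.7 cells primed with Pam3CSK4 (5 hours) and transfected with LipidA (24 hour) after 48h siRNA knockdown at 100 nM; cell viability checked with CellTiter-Glo.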

Sequence | z-score
CCAAGUUAGUGGAUGAAUGTT against Ugt2b35 | inactive: -0.555
GGGACAAUGGAGCAAGAUGTT against Fbxo42 | inactive: -0.923
CCAUCAAAACGAUCAACAATT against Setbp1 | inactive: -1.24
GGACAUUGAACAACACUAUTT against Krt9 | inactive: -1.17
GGUUACUUAGCUUUUCUGATT against Tnfaip2 | inactive: 0.094
GGUUGGACAAAAUGAUCUUTT against Abhd5 | inactive: 0.749
GCUCGUAAUCUUUAUUGUUTT against Olfr874 | inactive: 0.527
UGGACUGUAUUGAAAACCATT against Maf | inactive: -1.61
GGACCAGGAUAGGACCAAUTT against Avpr2 | active: 2.33
GGUGGAGAUGGAAAACAUGTT against Myoz1 | inactive: 0.95
GGCAGCUUAGCUACUAUUCTT against Zfyve28 | inactive: 0.58
CGCCUGUGUUUCGUACGUUTT against Mafg | inactive: 0.29
GGGACACCUAUUUUAUCCATT against St7 | inactive: -0.154
CCUAAGCCCAAGAUCAUCUTT against Mybph | inactive: -0.627
GGAUUCAGCAGACUUUGAATT against Gask1a | inactive: 0.385
GGGAUUUCUUACCCUGUUUTT against Prr7 | inactive: -0.222
GGUCAACCUCAUGUUACGATT against Card11 | inactive: -0.864
GCUCAUGAUAUUACCUUCGTT against Olfr601 | inactive: -1.53
GGAAAUGGUAGCCAGAGUGTT against Dcpp1 | inactive: -1.83
GAUAAUAUCUUUGUCUGCUTT against Olfr461 | inactive: -1.58
GCUGCGUCCUAUGAGUUUATT against Drg2 | inactive: 1.72
GGAGUCGUGUAUUUUGCUGTT against B3gat3 | inactive: -0.187

Sequence | z-score
GGCGAGACGACACAUUUUCTT against Cdc16 | inactive: -1.26
GGAAAAAGAGCAAAUUACUTT against Kif23 | inactive: 0.354
GCAGAUUUUCCUUGUAGAATT against Smad2 | inactive: 1.17
CGAUGCAUUCAUUGUCUAUTT against A830073O21Rik | inactive: 0.092
GCUUCCUCAAGCGCAUGUATT against Cox10 | inactive: 1.8
GGCUAAAAACUACCUCCUGTT against Klhl20 | inactive: -0.822
GCCGCACUAAAUUCUCUUATT against H2-Oa | inactive: 0.3
GGAAAAUGUUUCUGAUGAATT against Nfat5 | inactive: -0.478
GCUGCCAAAGUGACAUAGATT against Notch3 | inactive: 1.35
GGUCACUGGAGCUUUAAUATT against Olfr705 | inactive: 0.53
GGAUGAAGUGUGUUUUGGCTT against Sim1 | inactive: 0.95
GGCCACCUAAAACUAUAUATT against Cd59a | inactive: -1.94
CCUGAUUCAAAUGCUCUCCTT against Nlrx1 | inactive: 0.293
CCAUGGGCAUCAAACAUUCTT against Odf3l1 | inactive: 0.238
GGUUUUAAAGAAGACGGUATT against Cfap298 | inactive: -0.886
GGCCGUUUCACUACCAUUCTT against Ier2 | inactive: 0.259
GCCUACUUCUGUUAAUUCUTT against Apon | inactive: 0.603
GGACAAUCAGACCCUGUCATT against Use1 | inactive: -0.365
GGAGGUGGAAAAUCUGUACTT against Cdca8 | inactive: 0.855
GGGCGUACCUGUCUUUUCATT against Cpa6 | inactive: 0.93
GCGAGUUGUAACAUUGCCATT against St14 | inactive: -0.712
GGAGUUUCUGGAAGAGAUCTT against Ube3b | inactive: 0.7

Sequence | z-score
GGAGAUCGCACCUAAGAUUTT against Pgam2 | inactive: 0.22
GGCCAUAUCUUAAAGUUAATT against Hcfc1r1 | inactive: -0.246
GGCUUUUGGCUUCAACCCUTT against Slc39a14 | active: -2.24
GGUUCUUGGUGAUGAUGAGTT against Pds5a | active: -2.6
GGAGAAUGACCAGCUGAUCTT against Ss18l2 | inactive: 0.547
CGUAAAGUGACCUUAAGAATT against Lrrfip1 | inactive: -0.969
GGCUCUGUGAAGAAAGUCATT against Cnn3 | inactive: 0.462
GGCAAUUUGUGGAUUAUUGTT against Olfr1105 | inactive: -0.458
GGAGAACAUCAAGAACAAUTT against Ap2m1 | active: 2.08
GGAGUGGUAUUUUUACAAUTT against Slc34a1 | inactive: -0.162
GGAUCAAAUUACAGAUCUUTT against Eef1e1 | inactive: 1.81
GCACAAGACUUUAUAACCATT against Slc25a35 | inactive: -0.838
GGAAAGAAUGAGGAUGUGGTT against Pitx2 | active: -2.07
GGUAAAAGUGGGUAGGAAATT against Ptprh | inactive: 0.595
CCCAAUGUUUCUAAUCAUGTT against Arhgap12 | inactive: 0.306
GGCAUUUUCACAAAAGACUTT against Rab23 | inactive: -1.43
GGAUUUUCUUACACGGAUGTT against Cyct | inactive: -0.129
GGGCACGAUCCUCUUCAACTT against Nr0b2 | inactive: 0.982
GGAAGUUGUUUUGUUGGACTT against Epha2 | inactive: 0.275
CGAGUUCCUAUGUUGGUGCTT against Cldn2 | inactive: -0.349
GGCUUUCAAGGGUUGCCAATT against Ms4a3 | inactive: -0.622
GCAGUUCUCCUAUUUCAUCTT against Cdc45 | active: 2.03

Sequence | z-score
GGGUAACGUGCUGCUUCUATT against Bri3 | inactive: 0.989
GGGUGAGAAGAAAAUCCGGTT against Zbtb7a | inactive: -1.71
GGACCCAAUAAAACUUCCGTT against Ttc36 | inactive: 1.13
GGUCUAAUAUAAACGGGCCTT against Ppp4r2 | inactive: -0.561
GGAUCCAUGCUGUCAGUGGTT against Sftpa1 | active: 2.17
CCGACUACGUCAAUUGGUUTT against Fbxo21 | inactive: 0.148
GGAAGACCAGCACUUGAAATT against Klhl13 | inactive: 1.52
GGCUGAAAAGGAAAAUCCATT against Pdcd10 | inactive: 0.141
GCCUCCAUGGGAAAUCAAGTT against Zfp37 | inactive: -0.151
GCAGAUGCUAACAUAUCCATT against Trim32 | inactive: -0.902
GGUUUUUUGGUACCAAGUGTT against Unc93b1 | inactive: -0.71
CGAUGUUGGUAUUACUGUUTT against Armcx5 | inactive: 1.24
GGUUGUCCCACAUACUUCCTT against Nr1d1 | inactive: -0.0524
GGCAUUGGUGUUUCAUUAATT against Gpm6a | inactive: 1.2
GGAAGACGACACUGUGUGGTT against Reep6 | inactive: 0.534
GGCCAUGGAAAAGUUCCGUTT against Kcna3 | inactive: -0.525
GGCUGUAGUGGUGCUAAUUTT against Slc10a2 | inactive: 1.12
CGAUUUCACAAAAACAUGATT against Vta1 | inactive: -0.394
CCCAAAGUGGUAUCCAAAGTT against 6030498E09Rik | inactive: 1.01
GCCAAGCAUUGGAACCAUGTT against Prss46 | inactive: 1.06
GCCAACUGGAUAUUAACAATT against Dnm1l | inactive: 1.02
GGAUGGUUACAAAAGAGAUTT against Dspp | inactive: -0.85

Taken from above.
Value of GGUUGUCCCACAUACUUCCTT against Nr1d1 under z-score: inactive: -0.0524
Value of GGGUAACGUGCUGCUUCUATT against Bri3 under z-score: inactive: 0.989
Value of GGAUGGUUACAAAAGAGAUTT against Dspp under z-score: inactive: -0.85
Value of GCAGAUGCUAACAUAUCCATT against Trim32 under z-score: inactive: -0.902
Value of CGAUUUCACAAAAACAUGATT against Vta1 under z-score: inactive: -0.394
Value of GGCCAUGGAAAAGUUCCGUTT against Kcna3 under z-score: inactive: -0.525
Value of GGCUGUAGUGGUGCUAAUUTT against Slc10a2 under z-score: inactive: 1.12

(next part)

Sequence | z-score
GCCACGUUCCUCAUCGAUUTT against Plscr3 | inactive: -0.618
GGAGUAUGCUCAGGUGAUCTT against Eif1a | inactive: 0.886
CCAACGUGAGCAUAUUAUATT against Adcy2 | inactive: 0.0638
GGAAAUGGUGCAGAAAACCTT against Marchf6 | inactive: 0.666
GGACAUUAGAGAUUUCCGATT against Isyna1 | inactive: -1.52
CCAUAUCUUUAGCUCCACATT against Pate14 | inactive: -0.501
GGCUGGAGUCAAAGGAAAGTT against Nudt4 | inactive: 1.81
GGCUCUUGAUACGAAUGUATT against Aadac | inactive: -0.44
CGAAGUAUUUGGUGGACCATT against Tmem254a | inactive: -0.457
GGAUUUGGGUUUUCUAUAATT against Cfb | inactive: -0.0373
CCAACUACACACUACGCAUTT against Grik5 | inactive: -0.00669
GGGACUUCCAAGGAAAGUGTT against Dbi | inactive: 1.28
CGAUCUGCUAUCAUAAGCATT against A630005I04Rik | inactive: -1.1
GGAUGUGAUGAAGUUGGCCTT against Olfr78 | inactive: -1.96
GGUGCCUCUUAAAUAAAAATT against Efcab8 | inactive: 0.00992
GGUACUUUGUGGGAGAAGATT against Actrt1 | inactive: 0.835
GGAAACUACAAAUUUGGCATT against Krtap6-2 | inactive: 0.195
GGAACUGGUCUCAGAAGAGTT against Cd79b | inactive: -0.675
GGCUGUCUAUAAGAAUGUUTT against Nup210 | inactive: -0.812
